In one test the target is T1, TRMT112-E2Tag (human) (UniProt Q9UI30).
T1 sequence: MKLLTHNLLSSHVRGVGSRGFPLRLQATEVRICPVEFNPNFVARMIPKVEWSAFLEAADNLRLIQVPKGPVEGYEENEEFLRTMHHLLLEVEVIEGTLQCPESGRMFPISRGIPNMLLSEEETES
The test is described as follows: co-IP; HeLa cells electroporated with 1000 ng of pQM plasmids, collected 24 h later; immunoprecipitation with anti-E2Tag antibody 5E11; immunoblot for WBSCR22 and TRMT112. Background: Immunoblotting shows a protein as a band on a membrane.

The target in test [1] is T2, E2Tag-WBSCR22 (stably expressed in U2OS cells) (human) (UniProt O43709).
T2 sequence: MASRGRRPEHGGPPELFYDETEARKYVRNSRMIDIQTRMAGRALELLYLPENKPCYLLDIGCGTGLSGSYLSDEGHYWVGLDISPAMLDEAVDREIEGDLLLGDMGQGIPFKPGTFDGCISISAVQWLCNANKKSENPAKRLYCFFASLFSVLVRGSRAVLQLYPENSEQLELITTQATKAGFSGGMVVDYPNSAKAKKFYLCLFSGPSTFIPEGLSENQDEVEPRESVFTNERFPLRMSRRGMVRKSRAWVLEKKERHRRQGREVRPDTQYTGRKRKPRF
The test is described as follows: co-IP; U2OS and U2OS-E2Tag-WBSCR22 cell lysates, immunoprecipitation with antibody against E2Tag, immunoblot with antibodies against WBSCR22, TRMT112 and C1QBP.

Test [2] concerns the target T3, E2Tag-WBSCR22 (transiently expressed in HeLa cells) (human) (UniProt O43709).
T3 sequence: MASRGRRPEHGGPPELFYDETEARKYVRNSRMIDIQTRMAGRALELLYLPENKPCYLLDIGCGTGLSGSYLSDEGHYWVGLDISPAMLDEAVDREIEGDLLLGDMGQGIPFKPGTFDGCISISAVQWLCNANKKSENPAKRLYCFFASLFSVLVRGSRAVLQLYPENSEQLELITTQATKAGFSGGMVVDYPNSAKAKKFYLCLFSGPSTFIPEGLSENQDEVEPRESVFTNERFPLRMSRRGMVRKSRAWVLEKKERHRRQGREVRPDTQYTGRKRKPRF
The test is described as follows: co-IP; HeLa cells electroporated with 1000 ng of pQM plasmids, collected 24 h later; immunoprecipitation with anti-E2Tag antibody 5E11; immunoblot for WBSCR22 and TRMT112.

These are yes or no findings as the source states them, for the method shown. In cells and extracts the contact can be indirect. Some results given as binding are weak or reduced against the parent protein; the word gives no strength. Where a sequence is shown, tags or fusion partners need not be part of it.

B1: WBSCR22 (endogenous, HeLa cells) (protein, UniProt O43709 1-281)
chain: MASRGRRPEHGGPPELFYDETEARKYVRNSRMIDIQTRMAGRALELLYLPENKPCYLLDIGCGTGLSGSYLSDEGHYWVGLDISPAMLDEAVDREIEGDLLLGDMGQGIPFKPGTFDGCISISAVQWLCNANKKSENPAKRLYCFFASLFSVLVRGSRAVLQLYPENSEQLELITTQATKAGFSGGMVVDYPNSAKAKKFYLCLFSGPSTFIPEGLSENQDEVEPRESVFTNERFPLRMSRRGMVRKSRAWVLEKKERHRRQGREVRPDTQYTGRKRKPRF
B1: the binding result with TRMT112-E2Tag (human) was “binds”.

B2: TRMT112 (endogenous, U2OS cells) (protein, UniProt Q9UI30 1-125)
chain: MKLLTHNLLSSHVRGVGSRGFPLRLQATEVRICPVEFNPNFVARMIPKVEWSAFLEAADNLRLIQVPKGPVEGYEENEEFLRTMHHLLLEVEVIEGTLQCPESGRMFPISRGIPNMLLSEEETES
Regarding B2, in test [1], the binding entry is given as “binds”.

B3: TRMT112 (endogenous, HeLa cells) (protein, UniProt Q9UI30 1-125)
chain: MKLLTHNLLSSHVRGVGSRGFPLRLQATEVRICPVEFNPNFVARMIPKVEWSAFLEAADNLRLIQVPKGPVEGYEENEEFLRTMHHLLLEVEVIEGTLQCPESGRMFPISRGIPNMLLSEEETES
For B3, in test [2], the binding result is “binds”.

Source of the values: article PMC4516353.
